The record followed here is PubChem BioAssay AID2685 (National Center for Advancing Translational Sciences (NCATS), 2010).

Some of the results follow. The main result of the screen is listed elsewhere. These columns were measured beside it and carry no call. Most of these compounds were active or inconclusive in the main read-out, so they are no random draw. Potencies come from curve fits of mixed quality, noted in brackets.

A short description of this assay: qHTS Assay for Lipid Storage Modulators in Drosophila S3 Cells.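 On cell number change: cells counted by Cell Tracker Red CMTPX staining in the red channel.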 Conditions: BODIPY lipid droplet fluorescence, 18-24 h; for cell number change: measured here: cell count max response, cells fed with added oleic acid. Summed up: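 Drosophila S3 cells got compounds at several concentrations plus oleic acid (400 uM solution). Laser-scanning cytometry with 488 nm excitation read lipid droplets at 500-530 nm and cells at 575-640 nm. Percent activity was relative to 20 uM Triacsin C.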

The mark [1] stands for this setting: measured here: lipid fluorescence (Fed channel) AC50, cells fed with added oleic acid.
The mark [2] stands for this setting: measured here: cell number channel AC50, cells fed with added oleic acid.

As to `COc1ccc(CCNC(=O)CN(c2cc(OC)ccc2OC)S(=O)(=O)c2ccccc2)cc1`, the cell number change is -14.5%. For the same compound, the AC50 under setting [1] was 35.5 µM [falling, single point].
Regarding `C=CCn1c(SCC(=O)NC2CCCc3ccccc32)nnc1-c1ccncc1` (configuration not stated), the cell number change is -19.5%. The concentration at half-maximal activity (AC50) under setting [2] is 0.231 µM [falling, full curve, poor fit]. Further, the AC50 under setting [1] is 6.51 µM [rising, single point].
`CC1(C)CC(=O)C=C(NCC(=O)O)C1`: the cell number change is -4%.
`Cc1nc(-c2ccc(NC(=O)CC(C)C)cc2)cs1`: the cell number change came out at 36.7%. The AC50 under setting [2] is 5.17 µM [rising, partial curve].
`C/C(=N\Nc1ccccn1)c1ccc2c(c1)OCO2`: the cell number change turned out to be 10.8%. In addition, the half-maximal activity concentration (AC50) under setting [2] is 0.00517 µM [rising, full curve, poor fit]. For the same compound, under setting [1], the concentration at half-maximal activity (AC50) was 0.00461 µM [rising, full curve].
With `CCOC(=O)CON1C(=O)c2ccccc2C1=O`, the cell number change was -13.7%. The AC50 under setting [2] was 4.11 µM [falling, partial curve, poor fit]. Moreover, the half-maximal activity concentration (AC50) under setting [1] is 14.6 µM [falling, partial curve].
On to `O=C(CCC(=O)NNC(=O)c1ccc([N+](=O)[O-])cc1)NCc1ccccc1`, for which the cell number change is 134%.
For the compound `CC(=O)c1cnn(-c2ccc(Cl)cc2)c1C`, the cell number change amounted to 14.1%. Besides, under setting [1], the half-maximal activity concentration (AC50) is 18.4 µM [rising, single point].
Take `Fc1cc(Br)ccc1COc1ccc(-c2nnco2)cc1`: the cell number change turned out to be 22.5%. Further, under setting [1], the AC50 is 9.2 µM [rising, partial curve].
For the compound `CCC1CCCCN1C(=O)CSc1nnc(CNC(=O)c2c(F)cccc2Cl)o1` (configuration not stated), the cell number change is -13.6%.
Same read-out and setting: under `C/C(=N\NC1=NCCN1)c1ccc(N)c([N+](=O)[O-])c1` stands -3.74%.
Regarding `COC(=O)C1CCN(Cc2cc(=O)oc3cc(OC)ccc23)CC1`, the cell number change stood at 24%. Moreover, under setting [1], the concentration at half-maximal activity (AC50) was 11.6 µM [rising, partial curve].
As to `CCCn1c(N)c(C(=O)CSc2ncn[nH]2)c(=O)n(C)c1=O`, the cell number change was 17.1%. For the same compound, the half-maximal activity concentration (AC50) under setting [1] is 0.116 µM [falling, full curve, poor fit].
Take `N#Cc1ccc2[nH]c(CO)c(-c3ccccc3)c2c1`: the cell number change is 3.24%. Further, under setting [1], the AC50 is 14.6 µM [rising, single point].
In the case of `CCSc1nnc(NC(=O)c2cccc3ccccc23)s1`, the cell number change was -19.7%. The concentration at half-maximal activity (AC50) under setting [1] was 3.26 µM [falling, single point].
For the compound `CC(C)Cc1ccc(C(C)NC(=O)Cc2ccc(S(=O)(=O)N3CCOCC3)s2)cc1` (configuration not stated), the cell number change was 13.8%. Further, the AC50 under setting [1] was 0.116 µM [falling, full curve, poor fit].
Turning to `COc1ccc(-c2cn3c(C)c(C(=O)N4CCN(c5ccccc5F)CC4)sc3n2)cc1`, the cell number change was -6.63%. Under setting [1], the concentration at half-maximal activity (AC50) was 29.1 µM [falling, single point].
Turning to `CC#CC[N+](C)(C)CCCCCC`, the cell number change was -11.8%. Further, the half-maximal activity concentration (AC50) under setting [1] is 0.103 µM [falling, full curve, poor fit].
On to `O=C(c1ccc(Cl)c(S(=O)(=O)NCc2ccco2)c1)N1CCN(c2ccc(F)cc2)CC1`, for which, under setting [2], the AC50 is 1.84 µM [rising, partial curve].
In the case of `CN(C)S(=O)(=O)c1cccc(-c2nnc(SCc3ccc4c(c3)OCCO4)o2)c1`, the cell number change is -9.44%.
As to `COc1ccc(C)cc1NC(=O)c1sc2nc(C)nc(N3CCOCC3)c2c1C`, the cell number change was found to be 12.8%. Moreover, the AC50 under setting [1] is 5.17 µM [falling, single point].
Regarding `Cc1ccc(NC(=O)CSCC(=O)Nc2ccccc2C(=O)NC2CC2)cc1`, the cell number change is 21.2%.
Turning to `CC(CNC(=O)c1ccco1)NC(=O)c1ccco1` (configuration not stated), the cell number change was 10.5%. Further, the AC50 under setting [1] was 35.5 µM [falling, single point].
With `COCCN(C(=O)c1ccc(-c2ccc(Cl)cc2)o1)c1c(N)n(CC(C)C)c(=O)[nH]c1=O`, the cell number change is 26.1%. In addition, the half-maximal activity concentration (AC50) under setting [1] is 32.6 µM [falling, single point].
On to `CCCC[C@]12Cc3ccccc3C(O1)c1c(cc(-c3ccccc3)oc1=O)O2`, for which the cell number change was -23.8%. Also, under setting [1], the half-maximal activity concentration (AC50) is 5.31 µM [falling, single point].
On to `COc1ccc(/C=N/NC(=O)c2ccc(COc3ccccc3Cl)o2)c(OC)c1C`, for which the cell number change is -51.2%. The concentration at half-maximal activity (AC50) under setting [2] is 29.1 µM [falling, single point].
Regarding `CCOC(=O)c1ccc(NC(=S)NC(=O)c2cncc(Br)c2)cc1`, under setting [1], the AC50 was 4.61 µM [rising, partial curve].
Still for that read-out and setting: under `CCNc1nc(NCC)n2c(SCC(=O)Nc3ccccc3C(F)(F)F)nnc2n1` stands 6.51 µM [rising, single point].
Consider `Cc1cccc(-c2nc(S(=O)(=O)c3ccc(F)cc3)c(NCCCN3CCOCC3)o2)c1`, for which the cell number change was 22.6%. Moreover, the AC50 under setting [1] is 6.51 µM [rising, single point].
In the case of `CCCCN(C)C(=S)Nc1ccc2nc(N3CCN(CC)CC3)cc(C)c2c1`, the cell number change worked out at 21.3%.
As for `COCCNC(=O)COCc1cc(-c2ccc3c(c2)OCO3)on1`, the cell number change came out at 33%. Also, the AC50 under setting [2] was 32.6 µM [rising, single point]. Also, under setting [1], the AC50 is 29.1 µM [rising, single point].
In the case of `Cc1ccccc1-n1nc2c(c1NC(=O)c1cc3ccccc3oc1=O)CS(=O)C2` (configuration not stated), the cell number change was -19.3%. Besides, the AC50 under setting [1] was 5.8 µM [rising, full curve, poor fit].
`O=C(N/N=C\c1cn[nH]c1-c1ccccc1)c1cccnc1`: the cell number change was found to be 48.6%. The concentration at half-maximal activity (AC50) under setting [2] is 10.3 µM [rising, partial curve]. Further, under setting [1], the AC50 is 1.3 µM [rising, full curve, poor fit].
For `CCCC(=O)Nc1ccccc1-c1nnc(SC)[nH]c1=O`, the cell number change was -11.9%. The AC50 under setting [1] is 4.11 µM [falling, full curve, poor fit].
Turning to `NS(=O)(=O)c1ccc(N/C=C\C(=O)c2ccc(F)cc2)cc1`, the cell number change is 14.4%.
Still for that read-out and setting: the value for `COC(=O)C1=C(C)NC(=O)NC1C1CC=CCC1` (configuration not stated) was 8.83%.
As to `COc1ccc(NC2CCCN(C(=O)c3csc(C(C)C)n3)C2)cc1OC` (configuration not stated), the cell number change is -38.1%. Under setting [2], the AC50 was 32.6 µM [falling, single point].
`O=C(COC(=O)c1cc([N+](=O)[O-])ccc1N1CCOCC1)NC1CCS(=O)(=O)C1` (configuration not stated): the cell number change is -2.66%. The AC50 under setting [2] is 0.0461 µM [falling, full curve, poor fit]. Further, under setting [1], the AC50 is 0.00461 µM [falling, full curve, poor fit].
Turning to `O=C(Nc1ccnc(-c2cccnc2)n1)c1ccc(F)cc1`, the cell number change was -12.7%. Also, under setting [1], the AC50 is 13 µM [falling, partial curve, poor fit].
Regarding `CO/C=C/C#CC1(O)CCN(C)CC1`, the cell number change is -11.2%.
In the case of `CCC(=O)NC(Nc1sc2c(c1C(=O)OC)CCC2)C(Cl)(Cl)Cl` (configuration not stated), the cell number change amounted to 58.3%. The AC50 under setting [2] is 16.4 µM [rising, single point].
`COc1ccc2c(c1)c(C(C)=O)c(C)n2-c1ccc(C(C)=O)cc1`: the cell number change was -6.94%. Further, under setting [2], the AC50 was 0.164 µM [falling, full curve, poor fit].
Turning to `COc1ccc(-c2cc(C(F)F)n3ncc(C(=O)NCCCN4CCCC4=O)c3n2)cc1`, the half-maximal activity concentration (AC50) under setting [2] was 0.116 µM [rising, full curve, poor fit].
With `N#Cc1ccccc1CSc1nc(N)cc(N)n1`, the cell number change was -11.1%.
Take `O=C(Cn1nc(-c2ccc(Cl)cc2)c2ccccc2c1=O)Nc1cccnc1`: the cell number change stood at 2.01%. The AC50 under setting [2] was 2.59 µM [rising, partial curve]. For the same compound, under setting [1], the AC50 was 2.59 µM [rising, partial curve].
For the compound `CC(=O)c1c(C)[nH]c(C(=O)OCC(=O)N2CC(C)OC(C)C2)c1C` (configuration not stated), the AC50 under setting [1] was 16.4 µM [rising, partial curve].
With `COc1cccc(N(CC(=O)NC2CCCC2)C(=O)CCC(=O)Nc2cc(C)on2)c1`, the cell number change was -18.4%. Besides, the AC50 under setting [1] is 0.112 µM [rising, full curve, poor fit].
With `COc1ccccc1OCCNc1ccc(S(=O)(=O)N2CCCC2)cn1`, the cell number change was determined as 19%.
Regarding `Cc1ccc(NC(=O)N2CCCc3ccccc32)cc1`, the cell number change was 32.9%. For the same compound, under setting [2], the concentration at half-maximal activity (AC50) is 10.3 µM [rising, partial curve, poor fit].
For the compound `COc1ccc(S(=O)(=O)N2CCC(C(=O)Nc3cc(Cl)ccc3N3CCOCC3)CC2)cc1OC`, the AC50 is, setting by setting: under setting [2], 2.91 µM [rising, single point]; under setting [1], 3.26 µM [rising, single point].
Consider `O=C(Nc1cc(C(F)(F)F)ccc1N1CCCCC1)c1ccco1`, for which the cell number change is -8.02%. Moreover, the concentration at half-maximal activity (AC50) under setting [1] is 1.16 µM [rising, full curve].
For `CCCCC[C@H]1CN(C2CCCCC2)C(=O)[C@@H]1CC(=O)NCc1ccc(OC)cc1`, the cell number change worked out at 9.71%. For the same compound, under setting [1], the concentration at half-maximal activity (AC50) is 2.59 µM [falling, partial curve].
As for `COc1ccc(NS(=O)(=O)c2ccc(C)c(C(=O)NCCCN3CCCC3=O)c2)cc1`, the cell number change was -32.3%. Also, the AC50 under setting [2] is 29.1 µM [falling, single point]. Besides, under setting [1], the AC50 was 29.1 µM [falling, single point].
`Cc1ccc2c(c1)C(C)CC(C)(C)N2C(=O)NC1CCCCC1` (configuration not stated): the cell number change was -29.5%. Also, the AC50 under setting [2] was 3.66 µM [falling, full curve, poor fit]. In addition, the concentration at half-maximal activity (AC50) under setting [1] was 10.3 µM [falling, partial curve].
As to `CNc1nc(SCC(=O)Nc2ccccc2)nc(N2CCOCC2)n1`, the cell number change turned out to be 43.8%. Under setting [2], the AC50 was 32.6 µM [rising, single point]. Also, the half-maximal activity concentration (AC50) under setting [1] was 29.1 µM [rising, single point].
Turning to `Cc1[nH]cc(Br)c(=O)c1Oc1ncc(C(F)(F)F)cc1Cl`, the cell number change stood at 33%.
Same read-out and setting: under `CCN(CC)CCOC(=O)c1ccc(NC(=O)c2cn(-c3ccccc3)nc2-c2cccs2)cc1` stands 19%.
Regarding `CCn1ncc(Br)c1C(=O)NC1CCCCCCC1`, the cell number change was determined as 17.6%. In addition, the half-maximal activity concentration (AC50) under setting [1] was 29.1 µM [rising, single point].
Turning to `O=C(Nc1ccccc1Cl)N1CCN(c2ccc3nnc(-c4ccc(F)cc4)n3n2)CC1`, the cell number change is -20.1%.
`CC(C)NC(=O)CCCn1cc([N+](=O)[O-])cn1`: the cell number change was 32.1%. Besides, the AC50 under setting [2] was 5.8 µM [rising, single point].
`Cc1ccc(NC(=O)c2cc3ccccc3oc2=N)cc1`: the cell number change stood at 18.6%. Moreover, under setting [1], the concentration at half-maximal activity (AC50) is 0.0517 µM [rising, full curve, poor fit].
On to `O=C(COC(=O)CNC(=O)c1ccc(Br)o1)Nc1ccc2c(c1)OCCO2`, for which the cell number change was -1.43%. In addition, the concentration at half-maximal activity (AC50) under setting [1] was 29.1 µM [rising, single point].
Consider `Cc1ccc(SCC(=O)OCC(=O)NCCc2ccccc2)cc1`, for which the cell number change turned out to be 21.9%. Moreover, the AC50 under setting [2] is 0.00461 µM [rising, full curve, poor fit]. Moreover, the AC50 under setting [1] was 0.00731 µM [rising, full curve, poor fit].
